Data: US20190263889A1
No constants are given. Whether binding was seen depends on the method and setting. Some binding calls cover weakened binding; strength is not graded here.

Chains of the proteins cited; added tags and fusions are not shown. Residues count along the entry.
UniProt P42081, residues 24-245: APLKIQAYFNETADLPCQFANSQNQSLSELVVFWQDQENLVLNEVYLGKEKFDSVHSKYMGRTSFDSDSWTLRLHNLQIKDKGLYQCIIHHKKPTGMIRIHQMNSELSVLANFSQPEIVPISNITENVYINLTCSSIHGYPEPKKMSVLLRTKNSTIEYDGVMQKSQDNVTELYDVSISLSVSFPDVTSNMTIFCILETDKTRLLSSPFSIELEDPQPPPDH

Key:
[1] = molecular target: CTLA-4Fc mutant protein M17-1 (human (mutant)); assay: ELISA, summary grade
[2] = molecular target: CTLA-4Fc mutant protein M13 (human (murine residues substituted)); assay: ELISA, summary grade
[3] = molecular target: CTLA-4Fc mutant protein M13 (human (murine residues substituted)); assay: ELISA, fusion protein coated (FIG. 20)
[4] = molecular target: CTLA-4Fc mutant protein M17-1 (human (mutant)); assay: ELISA, fusion protein coated 1 ug/ml (FIG. 21A)
[5] = molecular target: CTLA-4Fc mutant protein M17-1 (human (mutant)); assay: ELISA, fusion protein coated 1 ug/ml (FIG. 21B)

Measured: binding

human B7-1Fc fusion protein (from UniProt P33681 35-242)
not listed: [5]
binds: all other assays above

human B7-2Fc fusion protein (from UniProt P42081 24-245)
binds: [5] | [1]
